Measurements taken from the supplement of paper PMC3682954.
Where a name gives a salt, the structure may show the parent alone. ± gives the standard deviation of the averaged measurements. This is one part of the list. Most values come without repeats; read them as rough.

Tested on: RAW 264.7
Test: HMGB1-induced TNF-alpha production relative to HMGB1-stimulated control; higher = more TNF-alpha secretion (less inhibition)
Conditions: stimulus: HMGB1 5 ug/ml, 18 h
[1] = compound concentration: 1 ug/ml

Structure (SMILES)	HMGB1-induced TNF-alpha production (compound concentration: 3 uM)	HMGB1-induced TNF-alpha production [1]
CC(N)(C(=O)O)c1ccc(C(=O)O)cc1 (racemic) [(±)-alpha-Methyl-4-carboxyphenylglycine]	117%	–
Nc1nc(=S)c2ncn([C@@H]3O[C@H](CO)[C@@H](O)[C@H]3O)c2[nH]1 [Thioguanosine]	61.4%	–
O=c1cc(-c2ccc(O)cc2)oc2cc(O)cc(O)c12 [Apigenin]	89.6%	68.8%
CO[C@H]1/C=C/O[C@@]2(C)Oc3c(C)c(O)c4c(c3C2=O)C2=NC3(CCN(CC(C)C)CC3)NC2=C(NC(=O)/C(C)=C\C=C\[C@H](C)[C@H](O)[C@@H](C)[C@@H](O)[C@@H](C)[C@H](OC(C)=O)[C@@H]1C)C4=O	106%	–
CO[C@H]1/C=C/O[C@@]2(C)Oc3c(C)c(O)c4c(c3C2=O)C2=NC3(CCN(CC(C)C)CC3)NC2=C(NC(=O)/C(C)=C\C=C\[C@H](C)[C@H](O)[C@@H](C)[C@@H](O)[C@@H](C)[C@H](OC(C)=O)[C@@H]1C)C4=O [Rifabutin]	104%	–
NC[C@H]1O[C@@H](n2cnc3c(N)ncnc32)[C@H](O)[C@@H]1O [5'-Amino-5'-deoxyadenosine p-toluenesulfonate salt]	90.5%	–
C[C@@H](N)[C@H]1CC[C@H](C(=O)Nc2ccncc2)CC1	86.6%	–
O=C(Cn1ccnc1[N+](=O)[O-])NCCO [Etanidazole]	90.1%	–
O=C(Cn1ccnc1[N+](=O)[O-])NCCO	82.76 ± 0.31%	–
CC(=O)OCC(COC(C)=O)OC(C)=O	93.9%	–
COc1ccc(CCNc2nc(Cl)nc(N3CC4CC(C3)c3cccc(=O)n3C4)n2)cc1OC (configuration not stated)	–	86%
CN(C)CCN(Cc1cccs1)c1ccccn1 [Methapyrilene hydrochloride]	95.4 ± 32%	–
CN(C)CCN(Cc1cccs1)c1ccccn1	106%	–
COc1c(O[C@@H]2O[C@H](CO)[C@@H](O)[C@H](O)[C@H]2O)cc2c(c1OC)-c1ccc(SC)c(=O)cc1[C@@H](NC(C)=O)CC2 [Thiocolchicoside]	67.9%	–
Cn1c(=O)[nH]c2c([nH]c(=O)n2C)c1=O [1,9-dimethyluric acid]	–	59.1%
Clc1ccc(C(Cn2ccnc2)OCc2c(Cl)cccc2Cl)c(Cl)c1 (configuration not stated) [Isoconazole]	49.6%	–
NCCC[C@H](N)C(=O)O	91.3%	–
CCOC(=O)C1=C(C)NC(C)=C(C(=O)OCC)C1c1c(F)c(F)c(F)c(F)c1F [Nemadipine-A]	101%	–
NC(=O)N1c2ccccc2C=Cc2ccccc21	102%	–
NC(=O)N1c2ccccc2C=Cc2ccccc21 [Carbamazepine]	88.1 ± 6.7%	–
CCn1cc(C(=O)O)c(=O)c2cnc(N3CCNCC3)nc21 [Pipemidic acid]	111%	–

For convenience, part of the list above.
Structure (SMILES)	HMGB1-induced TNF-alpha production (compound concentration: 3 uM)	HMGB1-induced TNF-alpha production [1]
COc1c(O[C@@H]2O[C@H](CO)[C@@H](O)[C@H](O)[C@H]2O)cc2c(c1OC)-c1ccc(SC)c(=O)cc1[C@@H](NC(C)=O)CC2 [Thiocolchicoside]	67.9%	–
Cn1c(=O)[nH]c2c([nH]c(=O)n2C)c1=O [1,9-dimethyluric acid]	–	59.1%
Clc1ccc(C(Cn2ccnc2)OCc2c(Cl)cccc2Cl)c(Cl)c1 (configuration not stated) [Isoconazole]	49.6%	–

More results

Structure (SMILES)	HMGB1-induced TNF-alpha production (compound concentration: 3 uM)	HMGB1-induced TNF-alpha production [1]
CCn1cc(C(=O)O)c(=O)c2cnc(N3CCNCC3)nc21	88.2%	–
NCCS(=O)(=O)O	88.6%	–
NCCS(=O)(=O)O [Taurine]	112%	–
COc1cc2nc(N3CCN(C(=O)c4ccco4)CC3)nc(N)c2cc1OC	77.8%	–
COc1cc2nc(N3CCN(C(=O)c4ccco4)CC3)nc(N)c2cc1OC [Prazosin]	99.9 ± 7.8%	–
COc1cc2nc(N3CCN(C(=O)c4ccco4)CC3)nc(N)c2cc1OC [Prazosin hydrochloride]	98.5 ± 9%	81.4%
N#CC(C#N)=C(N)/C(C#N)=C/c1ccc(O)cc1 [Tyrphostin AG 112]	94.4%	–
COc1cccc(-c2cc(=O)c3ccc(O)cc3o2)c1 [7-Hydroxy-3'-methoxyflavone]	–	71.8%
COc1ccc2c(C)cc(=O)oc2c1OC [7,8-Dimethoxy-4-methylcoumarin]	–	83.1%
COc1nc(C)nc(Cl)c1NC1=NCCN1	104%	–
COc1nc(C)nc(Cl)c1NC1=NCCN1 [Moxonidine hydrochloride]	107%	–
COc1nc(C)nc(Cl)c1NC1=NCCN1 [Moxonidine]	101%	–
Cc1ccc(S(=O)(=O)NC(=O)NN2CC3CCCC3C2)cc1 (configuration not stated)	83.6%	–
Cc1ccc(S(=O)(=O)NC(=O)NN2CC3CCCC3C2)cc1 (configuration not stated) [Gliclazide]	86.4 ± 20%	–
COc1ccc(-c2cc(=O)c3c(O)cc(O)cc3o2)cc1 [Acacetin]	–	76.8%
c1ccc(C(NCCNC(c2ccccc2)c2ccccc2)c2ccccc2)cc1	90.7%	–
CC(=O)N[C@@H](CC(=O)N[C@@H](CCC(=O)O)C(=O)O)C(=O)O [Spaglumic acid]	109%	–
CC(=O)N[C@@H](CC(=O)N[C@@H](CCC(=O)O)C(=O)O)C(=O)O	78.3%	–
O=c1c(O)c(-c2cc(O)c(O)c(O)c2)oc2cc(O)cc(O)c12 [Myricetin]	123%	66.6%
O=c1[nH]c2ccccc2c2ccccc12 [6(5H)-Phenanthridinone]	106%	–
C#CCN(C)Cc1ccccc1	86.9%	–

Structure (SMILES)	HMGB1-induced TNF-alpha production (compound concentration: 3 uM)	HMGB1-induced TNF-alpha production [1]
C#CCN(C)Cc1ccccc1 [Pargyline hydrochloride]	89.8 ± 3%	–
CCCCCC(C)N (configuration not stated)	79.6%	–
COc1ccc2cc(CCC(C)=O)ccc2c1 [Nabumetone]	96.8 ± 26%	–
Cc1cccc(/C=C/c2ccccc2)n1	102%	–
O=C(O)CCC(=O)OC[C@@H](NC(=O)C(Cl)Cl)[C@H](O)c1ccc([N+](=O)[O-])cc1	89.5%	–
CCn1cc(C(=O)O)c(=O)c2ccc(C)nc21	84.6%	–
CCn1cc(C(=O)O)c(=O)c2ccc(C)nc21 [Nalidixic acid sodium salt]	100%	–
CCn1cc(C(=O)O)c(=O)c2ccc(C)nc21 [Nalidixic acid sodium]	120%	–
C[C@H]1[C@@H](O)O[C@@H]2O[C@@]3(C)CC[C@H]4[C@H](C)CC[C@@H]1[C@@]24OO3	88.9%	–
COc1ccc(-c2oc3c(CC=C(C)C)c(O[C@@H]4O[C@H](CO)[C@@H](O)[C@H](O)[C@H]4O)cc(O)c3c(=O)c2O[C@@H]2O[C@@H](C)[C@H](O)[C@@H](O)[C@H]2O)cc1 [Icarrin]	–	84.2%
COc1ccc(-c2oc3c(CC=C(C)C)c(O[C@@H]4O[C@H](CO)[C@@H](O)[C@H](O)[C@H]4O)cc(O)c3c(=O)c2O[C@@H]2O[C@@H](C)[C@H](O)[C@@H](O)[C@H]2O)cc1	103%	–
CCN(CC)CCNC(=O)c1cc(S(C)(=O)=O)ccc1OC [Tiapride hydrochloride]	101 ± 5.2%	–
CCN(CC)CCNC(=O)c1cc(S(C)(=O)=O)ccc1OC	109%	–
O=C(CCCN1CC=C(n2c(=O)[nH]c3ccccc32)CC1)c1ccc(F)cc1	95.4 ± 9.2%	–
O=C(CCCN1CC=C(n2c(=O)[nH]c3ccccc32)CC1)c1ccc(F)cc1 [Droperidol]	70.3 ± 17%	–
Oc1c(I)cc(I)c2cccnc12	102%	–
CN1C2CCCC1CC(NC(=O)c1nn(C)c3ccccc13)C2 (configuration not stated) [Granisetron]	111 ± 17%	–
CN1C2CCCC1CC(NC(=O)c1nn(C)c3ccccc13)C2 (configuration not stated) [Granisetron hydrochloride]	100%	–
CN1C2CCCC1CC(NC(=O)c1nn(C)c3ccccc13)C2 (configuration not stated)	102%	–
CC(C)N1CCN(c2ccc(OCC3COC(Cn4cncn4)(c4ccc(Cl)cc4Cl)O3)cc2)CC1 (configuration not stated) [Terconazole]	57.2%	–
N=C(N)c1ccccc1 [Benzamidine hydrochloride]	77.8%	–

Structure (SMILES)	HMGB1-induced TNF-alpha production (compound concentration: 3 uM)	HMGB1-induced TNF-alpha production [1]
O=C(NCCNCC(O)COc1ccc(O)cc1)N1CCOCC1 (configuration not stated) [Xamoterol hemifumarate]	108%	–
O=C(NCCNCC(O)COc1ccc(O)cc1)N1CCOCC1 (configuration not stated) [Xamoterol]	104%	–
CCN(Cc1ccncc1)C(=O)C(CO)c1ccccc1 (configuration not stated) [Tropicamide]	95.9 ± 20%	–
CCN(Cc1ccncc1)C(=O)C(CO)c1ccccc1 (configuration not stated)	86.3%	–
CN(C)CCOC1=Cc2ccccc2Sc2ccc(Cl)cc21 [Zotepine]	66.1%	–
OC(CCN1CCCCC1)(c1ccccc1)C1CC2C=CC1C2 (configuration not stated)	84.2%	–
OC(CCN1CCCCC1)(c1ccccc1)C1CC2C=CC1C2 (configuration not stated) [Biperiden hydrochloride]	78.1 ± 15%	–
Cc1ncc([N+](=O)[O-])n1CCO	94 ± 21%	–
Cc1ncc([N+](=O)[O-])n1CCO [Metronidazole]	80.7 ± 3.3%	–
CCN(CC)CC#CCOC(=O)C(O)(c1ccccc1)C1CCCCC1 (configuration not stated) [Oxybutynin chloride]	50.4%	–
CCN(CC)CC#CCOC(=O)C(O)(c1ccccc1)C1CCCCC1 (configuration not stated) [Oxybutynin Chloride]	102%	–
CCN(CC)CC#CCOC(=O)C(O)(c1ccccc1)C1CCCCC1 (configuration not stated)	86.3%	–
CC(C)c1cccc(C(C)C)c1N1C(=O)c2ccc(O)cc2C1=O	106%	–
COc1ccc(C(=O)NCc2cccnc2)cc1C(=O)NCc1cccnc1 [Picotamide monohydrate]	70.8%	–
COc1ccc(C(=O)NCc2cccnc2)cc1C(=O)NCc1cccnc1 [Picotamide]	96 ± 18%	–
COCc1c(C(C)C)nc(C(C)C)c(/C=C/[C@@H](O)C[C@@H](O)CC(=O)O)c1-c1ccc(F)cc1 [Cerivastatin]	153%	–
C=CC[C@@H]1/C=C(\C)C[C@H](C)C[C@H](OC)[C@H]2O[C@@](O)(C(=O)C(=O)N3CCCC[C@H]3C(=O)O[C@H](/C(C)=C/[C@@H]3CC[C@@H](O)[C@H](OC)C3)[C@H](C)[C@@H](O)CC1=O)[C@H](C)C[C@@H]2OC	85.8 ± 17%	–
O=Nc1c(-c2c(O)[nH]c3ccccc23)[nH]c2ccccc12 [Indirubin-3'-oxime]	98.6%	–
Cc1ccc(C(=O)c2cc(O)c(O)c([N+](=O)[O-])c2)cc1 [Tolcapone]	114%	–
NC[C@H]1O[C@H](O[C@H]2[C@H](O[C@@H]3O[C@H](CO)[C@@H](O)[C@H]3O)[C@@H](O)[C@H](N)C[C@@H]2N)[C@H](N)[C@@H](O)[C@@H]1O	72.8%	–
NC[C@H]1O[C@H](O[C@H]2[C@H](O[C@@H]3O[C@H](CO)[C@@H](O)[C@H]3O)[C@@H](O)[C@H](N)C[C@@H]2N)[C@H](N)[C@@H](O)[C@@H]1O [Ribostamycin sulfate salt]	90%	–
